Experimental data taken from the supplement of paper PMC4840960.
Structures can show the parent of a compound that is named as a salt. ± gives the standard deviation of the averaged measurements. This is one part of the list. Baselines shift from plate to plate; read single values as rough.

test system: E18 rat cortical neuron-glia co-culture; assay: total nuclei (DAPI) / Olig2+ nuclei (ratio); higher = more depletion of OPC/OL lineage cells; settings: 1 µM; treatment time: 8 days (DIV5-DIV13)

In order of rising total nuclei:
1. CC(C)[N+]1(C)[C@@H]2CC[C@H]1C[C@@H](OC(=O)C(CO)c1ccccc1)C2 (some centres undefined) [Ipratropium]  3.65
2. CC[C@H]1OC(=O)[C@H](C)[C@@H](O[C@H]2C[C@@](C)(OC)[C@@H](O)[C@H](C)O2)[C@H](C)[C@@H](O[C@@H]2O[C@H](C)C[C@H](N(C)C)[C@H]2O)[C@](C)(O)C[C@@H](C)C(=O)[C@H](C)[C@@H](O)[C@]1(C)O [Erythromycin]  4.25
3. Nc1nc(N)nc(-c2cc(Cl)ccc2Cl)n1 [Irsogladine]  4.49

same assay, conditions: 5 µM; treatment time: 8 days (DIV5-DIV13)

First: c1ccc2[nH]c(-c3cscn3)nc2c1 [Thiabendazole]
Second: CN(C)CCC(c1ccc(Cl)cc1)c1ccccn1 (centres undefined) [Chlorpheniramine]
The total nuclei of the first is higher: 3.1 for the first, 2.85 ± 0.21 for the second.

Compared with `CN1CCN(c2c(F)cc3c(=O)c(C(=O)O)cn4c3c2SCC4)CC1` [Rufloxacin], `CCn1cc(C(=O)O)c(=O)c2cc(F)c(N3CCN(C)CC3)cc21` [Pefloxacin] is lower in total nuclei: 3.9 for the first, 3 for the second.

Going from `NC(N)=Nc1nc(CSCC/C(N)=N/S(N)(=O)=O)cs1` [Famotidine] to `CO/N=C(\C(=O)N[C@@H]1C(=O)N2C(C(=O)O)=C(COC(N)=O)CS[C@H]12)c1ccco1` [Cefuroxime], the total nuclei falls from 4.8 to 3.1.

Compared with `CC(=O)SCC(Cc1ccccc1)C(=O)NCC(=O)OCc1ccccc1` (centres undefined) [Racecadotril], `O=C(O)CCCc1ccccc1` [4-Phenylbutyric acid] is lower in total nuclei: 5.4 for the first, 3.8 for the second.

Compared with `O=C1c2cccc3c2[C@H](CCC3)CN1[C@@H]1CN2CCC1CC2` [Palonosetron], `C#C[C@]1(O)CC[C@H]2[C@@H]3CCc4cc(O)ccc4[C@H]3CC[C@@]21C` [Ethinyl Estradiol] is higher in total nuclei: 3 for the first, 14 for the second.

First: CC1CCN(CCCC(=O)c2ccc(F)cc2)CC1 [Melperone hydrochloride]
Second: O=C(CCCN1CCC(O)(c2ccc(Cl)cc2)CC1)c1ccc(F)cc1 [Haloperidol]
The total nuclei of the first is higher: 4.4 for the first, 2.9 for the second.

Compared with `CN(CCOc1ccc(NS(C)(=O)=O)cc1)CCc1ccc(NS(C)(=O)=O)cc1` [Dofetilide], `NC[C@H]1CC[C@H](C(=O)Oc2ccc(CCC(=O)O)cc2)CC1` [Cetraxate] is higher in total nuclei: 2.8 for the first, 4.4 for the second.

Going from `CC1(C)O[C@@H]2[C@@H](CO[C@@]3(COS(N)(=O)=O)OC(C)(C)O[C@@H]23)O1` [Topiramate] to `CC(=O)OCC(=O)[C@@]1(O)CC[C@H]2[C@@H]3C[C@H](C)C4=CC(=O)C=C[C@]4(C)[C@H]3[C@@H](O)C[C@@]21C` [Methylprednisolone acetate], the total nuclei rises from 2.9 to 4.4.

Going from `NC12CC3CC(CC(C3)C1)C2` [Amantadine] to `C[C@H]1C[C@@H]2[C@H]([C@@H](O)C[C@@]3(C)[C@H]2CC[C@]3(O)C(=O)CO)[C@@]2(C)C=CC(=O)C=C12` [Methylprednisolone], the total nuclei rises from 4.1 to 5.2.

Going from `Nc1nnc(-c2cccc(Cl)c2Cl)c(N)n1` [Lamotrigine] to `CCc1nc(N)nc(N)c1-c1ccc(Cl)cc1` [Pyrimethamine], the total nuclei rises from 4 to 28.8.

Going from `CC1Cc2ccccc2N1NC(=O)c1ccc(Cl)c(S(N)(=O)=O)c1` (centres undefined) [Indapamide] to `C[C@@H]1CN(CCCn2c3ccccc3c3ccccc32)C[C@H](C)N1` [Rimcazole], the total nuclei rises from 2.7 to 10.3.

First: Oc1ncnc2[nH]ncc12 [Allopurinol]
Second: O=c1[nH]c(=O)n([C@H]2C[C@H](O)[C@@H](CO)O2)cc1F [Floxuridine]
The total nuclei of the first is lower: 4.2 for the first, 15.2 for the second.

Compared with `CN(C)CCc1c[nH]c2ccc(C[C@H]3COC(=O)N3)cc12` [Zolmitriptan], `CCCCC(=O)O[C@H]1CC[C@H]2[C@@H]3CCc4cc(O)ccc4[C@H]3CC[C@]12C` [Estradiol valerate] is higher in total nuclei: 2.8 for the first, 4.5 for the second.

First: CCN1CCN(C(=O)N[C@@H](C(=O)N[C@@H]2C(=O)N3[C@@H]2SC(C)(C)[C@@H]3C(=O)O)c2ccccc2)C(=O)C1=O [Piperacillin]
Second: CC(=O)[C@]1(O)Cc2c(O)c3c(c(O)c2[C@@H](O[C@H]2C[C@H](N)[C@H](O)[C@H](C)O2)C1)C(=O)c1ccccc1C3=O [Idarubicin]
The total nuclei of the first is lower: 4 for the first, greater than 40 for the second.

Compared with `COC(=O)C1=C(C)NC(C)=C(C(=O)OCC(C)C)C1c1ccccc1[N+](=O)[O-]` (centres undefined) [Nisoldipine], `CCC(C)n1ncn(-c2ccc(N3CCN(c4ccc(OCC5COC(Cn6cncn6)(c6ccc(Cl)cc6Cl)O5)cc4)CC3)cc2)c1=O` (centres undefined) [Itraconazole] is lower in total nuclei: greater than 40 for the first, 23.5 for the second.

`CC[C@@H](CO)NCCN[C@@H](CC)CO` [Ethambutol] gave a total nuclei of 3.4.
